# PubChem BioAssay AID1259254 – NCATS, 2017
# Screen: 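Gene knock-downs that lead to re-replication, shown by excess G2 DNA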 (primary screen)
# System: human HCT116 colorectal cancer cells
# Reagents: single siRNA against human genes
# Duration: 3 days
# Measured: 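Imaged Hoechst DNA stain sorts each cell into a cycle phase by DNA amount; per plate, G2 fraction set to 0% for non-targeting and 100% for GMNN siRNA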
# Scale: G2 robust z-score and G2 cells, % of GMNN control: higher = more G2 cells, more excess DNA replication
# Active means: 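An siRNA counts as active if its G2 robust z-score lies at least 5 MADs above the screen median; here such calls match roughly 38% of GMNN control or more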
# This is a random part of about 59,000 reagents tested. Over the whole deposit, about 1,550 (2.6%) are marked active. 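G2 share is only a proxy for re-replication; each gene was hit by three separate siRNAs, and active genes were retested.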 Entries without a mark were called inactive. The numbers tell different reagents against one gene apart. Not all columns of the deposit are shown. Not stated in the record: the amount of reagent.
Target gene,siRNA no.,G2 robust z-score,"G2 cells, % of GMNN control"
WNT5A,1,0.348,5.41
WNT5A,2,6.29 (active),47.3
WNT5A,3,-0.213,1.47
SGF29,1,-0.305,0.818
SGF29,2,0.464,6.23
SGF29,3,-0.0348,2.72
YY1AP1,1,1.1,10.7
YY1AP1,2,1.56,13.9
YY1AP1,3,-0.192,1.62
MBD4,1,-0.996,-4.04
MBD4,2,0.655,7.58
MBD4,3,-0.207,1.51
UBE2W,1,-0.618,-1.38
UBE2W,2,0.199,4.37
UBE2W,3,-0.521,-0.697
CFL2,1,0.128,3.87
CFL2,2,0.763,8.34
CFL2,3,0.992,9.95
KCTD13,1,-1.35,-6.54
KCTD13,2,2.55,20.9
KCTD13,3,3.6,28.3
CPN2,1,0.475,6.31
CPN2,2,2.95,23.7
CPN2,3,-0.723,-2.12
DMD,1,0.566,6.95
DMD,2,2.55,20.9
DMD,3,1.54,13.8
PTK2,1,6.16 (active),46.3
PTK2,2,-0.515,-0.658
PTK2,3,0.177,4.22
OR5M9,1,-0.768,-2.44
OR5M9,2,0.0821,3.54
OR5M9,3,0.328,5.28
ATE1,1,-0.316,0.746
ATE1,2,0.441,6.07
ATE1,3,0.0494,3.32
ANAPC11,1,-0.557,-0.951
ANAPC11,2,-0.261,1.13
ANAPC11,3,2.4,19.8
RS1,1,-0.0876,2.35
RS1,2,-1.16,-5.21
RS1,3,0.975,9.83
CASK,1,0.792,8.54
CASK,2,-0.326,0.672
CASK,3,0.425,5.96
IFI27,1,0.414,5.88
IFI27,2,2.92,23.5
IFI27,3,-0.811,-2.74
EGR4,1,-0.552,-0.914
EGR4,2,-0.885,-3.26
EGR4,3,-0.384,0.264
IGF1R,1,-1.53,-7.79
IGF1R,2,-0.943,-3.67
IGF1R,3,-0.0484,2.63
CMTM1,1,-0.621,-1.4
CMTM1,2,-0.354,0.479
CMTM1,3,1.45,13.1
LINC01235,1,-0.0165,2.85
LINC01235,2,-0.125,2.09
LINC01235,3,0.607,7.24
GHSR,1,1.73,15.1
GHSR,2,-0.392,0.211
GHSR,3,3.98,31
ANKRD13D,1,-0.689,-1.88
ANKRD13D,2,-0.075,2.44
ANKRD13D,3,0.71,7.96
CACNA2D2,1,0.724,8.06
CACNA2D2,2,0.0308,3.18
CACNA2D2,3,-0.99,-4
